Measurements published in the supplement of paper PMC8728848.
The other results are listed elsewhere or left out.

What was measured:
Test in all cases: glycan array binding signal (z-score within array); higher = stronger binding
Conditions in all cases: glycan notation: IUPAC condensed, linker removed
Gal(a1-3)Gal(b1-4)GlcNAc = target: Gal(a1-3)Gal(b1-4)GlcNAc
Outline: (§1)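 Glycan array data came from 3228 arrays in the Consortium for Functional Glycomics database, and only arrays with an available protein sequence were kept. Glycan names were put into IUPAC-condensed notation, and columns mapping to the same glycan were averaged. The binding signal is a within-array Z-score, averaged across arrays of one protein sequence run at different concentrations or buffers and across linkers. A negative Z-score can be read as non-binding.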

[1] = target: Gal(a1-3)Gal(b1-4)GlcNAc(b1-2)Man
Outline: as §1

[2] = target: Gal(a1-3)Gal(b1-4)GlcNAc(b1-2)Man(a1-3)[Gal(a1-3)Gal(b1-4)GlcNAc(b1-2)Man(a1-6)]Man(b1-4)GlcNAc(b1-4)GlcNAc
Outline: as §1

[3] = target: Gal(a1-3)Gal(b1-4)GlcNAc(b1-3)GalNAc
Outline: as §1

[4] = target: Gal(a1-3)Gal(b1-4)GlcNAc(b1-6)GalNAc
Outline: as §1

[5] = target: Gal(a1-3)Gal(b1-4)[Fuc(a1-3)]GlcNAc
Outline: as §1

[6] = target: Gal(a1-3)Gal(b1-4)[Fuc(a1-3)]GlcNAc(b1-2)Man(a1-3)[Gal(a1-3)Gal(b1-4)[Fuc(a1-3)]GlcNAc(b1-2)Man(a1-6)]Man(b1-4)GlcNAc(b1-4)GlcNAc
Outline: as §1

Gal(a1-3)GalNAc = target: Gal(a1-3)GalNAc
Outline: as §1

[7] = target: Gal(a1-3)[Gal(a1-4)]Gal(b1-4)GlcNAc
Outline: as §1

[8] = target: Gal(a1-4)Gal(b1-3)GlcNAc(b1-2)Man(a1-3)[Gal(a1-4)Gal(b1-3)GlcNAc(b1-2)Man(a1-6)]Man(b1-4)GlcNAc(b1-4)GlcNAc
Outline: as §1

Gal(a1-4)Gal(b1-4)Glc = target: Gal(a1-4)Gal(b1-4)Glc
Outline: as §1

Gal(a1-4)Gal(b1-4)GlcNAc = target: Gal(a1-4)Gal(b1-4)GlcNAc
Outline: as §1

[9] = target: Gal(a1-4)Gal(b1-4)GlcNAc(b1-2)Man(a1-3)[Gal(a1-4)Gal(b1-4)GlcNAc(b1-2)Man(a1-6)]Man(b1-4)GlcNAc(b1-4)GlcNAc
Outline: as §1

[10] = target: Gal(a1-4)Gal(b1-4)GlcNAc(b1-3)Gal(b1-4)Glc
Outline: as §1

Gal(a1-4)GlcNAc = target: Gal(a1-4)GlcNAc
Outline: as §1

Gal(a1-6)Glc = target: Gal(a1-6)Glc
Outline: as §1

Gal(b1-2)Gal = target: Gal(b1-2)Gal
Outline: as §1

Gal(b1-3)Gal = target: Gal(b1-3)Gal
Outline: as §1

Gal(b1-3)Gal(b1-4)GlcNAc = target: Gal(b1-3)Gal(b1-4)GlcNAc
Outline: as §1

Gal(b1-3)GalNAc = target: Gal(b1-3)GalNAc
Outline: as §1

[11] = target: Gal(b1-3)GalNAc(a1-3)[Fuc(a1-2)]Gal(b1-4)Glc
Outline: as §1

[12] = target: Gal(b1-3)GalNAc(a1-3)[Fuc(a1-2)]Gal(b1-4)GlcNAc
Outline: as §1

Gal(b1-3)GalNAc(b1-3)Gal = target: Gal(b1-3)GalNAc(b1-3)Gal
Outline: as §1

[13] = target: Gal(b1-3)GalNAc(b1-3)Gal(a1-4)Gal(b1-4)Glc
Outline: as §1

[14] = target: Gal(b1-3)GalNAc(b1-4)Gal(b1-4)Glc
Outline: as §1

[15] = target: Gal(b1-3)GalNAc(b1-4)[Neu5Ac(a2-3)]Gal(b1-4)Glc
Outline: as §1

Gal(b1-3)GlcNAc = target: Gal(b1-3)GlcNAc
Outline: as §1

[16] = target: Gal(b1-3)GlcNAc(a1-3)Gal(b1-4)GlcNAc
Outline: as §1

[17] = target: Gal(b1-3)GlcNAc(a1-6)Gal(b1-4)GlcNAc
Outline: as §1

Gal(b1-3)GlcNAc(b1-2)Man = target: Gal(b1-3)GlcNAc(b1-2)Man
Outline: as §1

B1: BT4246 (Bacteroides thetaiotaomicron), Q89ZX5 (protein)
chain: MGSSHHHHHHENLYFQGHMASDYLDVVPPEQPNIDDAMSSPTRALGFLYSCYGGVSTDLPSAYLGEINSTTDEYVLPYSWNTDGYWGAYAFNTASSTNQDWLWGTTYQYIGQCYLFLQKLENAGSDIASDAEKEQWRAECQFLVAYYHFATLRRYGPIPITDSYIPMDTPTSEYNGRFHFDYCVDWIANQLDEAAKVLPANRTVTNEWGRATSTIAKAVKARLLLYAASPLWNGSFPYPNWQNENFETPGYGKALVSNTYDKSKWERALAACQEALTLATTSGDRELYDDDEYYSRQSLNLPFVPGVADVEDNKEFLKNVMKMRYAVSTRESEGNKEIIWGLSNQFDFYSRYPLRILKKSDGTWHAGYSGVSPTLYTFEHFYTANGKLPEKDLDFTPSSEWFESAGISSREDIIKLNVGREPRFYAWMAFDGGDYGTKFAAGSPLKLEMRNSEMHGYNPSLFNRDHSVTGFLTQKFVDPVTEFYTAGGSTSGTSAPTILFRLAELYLNVAECHAALGNTQEAIDALNPVRERAGIPKLTLADITNNMTIKDWVHNERFVELWNEGHRFFDVRRWAEGAKYFGANKREGLNAEVQSPTFEEFNKRTTVDAPYVWENRMYLNPVFYNEVYKNPQMVQAPGY
How did the “glycan array binding signal (z-score)” value (Gal(a1-3)Gal(b1-4)GlcNAc) turn out when B1 was run?
The value was -0.182.

What about the “glycan array binding signal (z-score)” value [1] of the same binder?
The value was -0.337.

What about the “glycan array binding signal (z-score)” value [2] of the same binder?
The value was -0.729.

What about the “glycan array binding signal (z-score)” value [3] of the same binder?
The value was -0.92.

What about the “glycan array binding signal (z-score)” value [4] of the same binder?
The value was 0.354.

And the “glycan array binding signal (z-score)” value [5]?
Its value is -0.933.

And the “glycan array binding signal (z-score)” value [6]?
The value was -1.29.

What about the “glycan array binding signal (z-score)” value (Gal(a1-3)GalNAc) of the same binder?
Its value is 0.367.

What about the “glycan array binding signal (z-score)” value [7] of the same binder?
Its value is 0.656.

What about the “glycan array binding signal (z-score)” value [8] of the same binder?
The value was 1.64.

What about the “glycan array binding signal (z-score)” value (Gal(a1-4)Gal(b1-4)Glc) of the same binder?
Its value is 0.019.

What about the “glycan array binding signal (z-score)” value (Gal(a1-4)Gal(b1-4)GlcNAc) of the same binder?
Its value is -0.155.

What about the “glycan array binding signal (z-score)” value [9] of the same binder?
The value was -0.235.

And the “glycan array binding signal (z-score)” value [10]?
Its value is -0.795.

What about the “glycan array binding signal (z-score)” value (Gal(a1-4)GlcNAc) of the same binder?
Its value is 0.366.

And the “glycan array binding signal (z-score)” value (Gal(a1-6)Glc)?
Its value is 0.294.

What about the “glycan array binding signal (z-score)” value (Gal(b1-2)Gal) of the same binder?
The value was -0.225.

What about the “glycan array binding signal (z-score)” value (Gal(b1-3)Gal) of the same binder?
Its value is -1.46.

And the “glycan array binding signal (z-score)” value (Gal(b1-3)Gal(b1-4)GlcNAc)?
The value was -1.2.

And the “glycan array binding signal (z-score)” value (Gal(b1-3)GalNAc)?
The value was 0.393.

What about the “glycan array binding signal (z-score)” value [11] of the same binder?
The value was -0.41.

And the “glycan array binding signal (z-score)” value [12]?
The value was -0.953.

And the “glycan array binding signal (z-score)” value (Gal(b1-3)GalNAc(b1-3)Gal)?
Its value is -1.43.

And the “glycan array binding signal (z-score)” value [13]?
Its value is 2.1.

And the “glycan array binding signal (z-score)” value [14]?
Its value is 2.02.

And the “glycan array binding signal (z-score)” value [15]?
The value was -1.31.

And the “glycan array binding signal (z-score)” value (Gal(b1-3)GlcNAc)?
The value was 0.859.

What about the “glycan array binding signal (z-score)” value [16] of the same binder?
The value was 0.481.

And the “glycan array binding signal (z-score)” value [17]?
Its value is -0.068.

What about the “glycan array binding signal (z-score)” value (Gal(b1-3)GlcNAc(b1-2)Man) of the same binder?
Its value is -0.683.
